No constants are given. Whether binding was seen depends on the method and setting. Some results given as binding are weak or reduced against the parent protein; the word gives no strength.

This assay deals with VibO, NADPH/FAD-dependent monooxygenase (oxepinone-forming enzyme) of Boreostereum vibrans (Boreostereum vibrans). As to the kind of experiment: crystal structure; VibO in complex with FAD, sitting-drop vapor diffusion at 16 °C, 2.43 Å; four VibO molecules in the asymmetric unit forming two symmetric dimers; both purified.

B1: VibO, NADPH/FAD-dependent monooxygenase (oxepinone-forming enzyme) of Boreostereum vibrans (enzyme, UniProt A0AA82WP17 1-653)
chain: MAAVENFEGYVEPELFERPGTSLPNKLGVMPQLTWPNVLNGTNCEKPAVPNYKPPSKVDVIIIGAGPVGLTTAACLLRQGITVRILDRSPHPLPVGRADGLQPRSMEVFDLLGLGEEVYHVGIRVEHTTVYKDGKQHIFAESHQAPGNEAHYTGLHACTQTEVEHLLIRDLIRHDILVERPCTATSYTFDEEADASVTHPITVNITNEATGAEEVVTARFLVGSDGAHSMIRKSLPIEFPGVKTDLHWGIVDAVINSDFPHRWTFGTVLNSEYGGCLIIPRERNMVRLYVQLRAEPGKAFDHSKWGPEEILVILNKVFAPYTLSYAEPVDWYTILTINERVATSFTYKDRIFLAGDSCHVHSAKGAFGMNTGVMDAHNLAWKLAMLCRGIAKPSLLASYDVERRENALRAVATSARYLRFVGNCTFQAIDGSGEVDKEADELVVPPGEDKDVFYFKKFVGQVGRFLIGLDVDYAENALNKLSPAVSRARAGYRASNPRVALSRSHSGRLYHSFGHLGQFTLLVFASNMGGALNAKLHALDSYLAGPSSFYHAYGGADTFKIVVVVRATPSQADQRVKTFPFLSKAGHTVYDDQLPLSHFGGDAHALYGVSHEEGAIVVVRPDSWIGTSSTISDARSLESYFDGFLFKSTEGSY
For B1, the binding result is “binds”.

Source of the values: article PMC10257657, “A flavin-monooxygenase catalyzing oxepinone formation and the complete biosynthesis of vibralactone” (Nature Communications, 2023).
